Laboratory results as given in patent US9617330B2, “Chemorepulsion of cells” (Celtaxsys, Inc., priority 2006, dated 2017).
At least one structure is not confirmed: it was looked up by name or label, or the drawing left a doubt.

Test system: Monocyte
Assay: Trans-well migration assay (Example 1), net migratory response
Conditions: net observed response

C[C@@H]1C[C@H]2[C@@H]3CCC4=CC(=O)C=C[C@]4(C)[C@@]3(F)[C@@H](O)C[C@]2(C)[C@@]1(O)C(=O)CO [Dexamethasone, reference compound]
Migratory Response: chemorepulsion
